Test results published in the supplement of paper PMC10849652.
Some of the results follow.

Chains of the proteins cited; added tags and fusions are not shown. Lines headed by an entry give the natural chain unless they say otherwise; changes in a name come on top.
UniProt Q9BQ69: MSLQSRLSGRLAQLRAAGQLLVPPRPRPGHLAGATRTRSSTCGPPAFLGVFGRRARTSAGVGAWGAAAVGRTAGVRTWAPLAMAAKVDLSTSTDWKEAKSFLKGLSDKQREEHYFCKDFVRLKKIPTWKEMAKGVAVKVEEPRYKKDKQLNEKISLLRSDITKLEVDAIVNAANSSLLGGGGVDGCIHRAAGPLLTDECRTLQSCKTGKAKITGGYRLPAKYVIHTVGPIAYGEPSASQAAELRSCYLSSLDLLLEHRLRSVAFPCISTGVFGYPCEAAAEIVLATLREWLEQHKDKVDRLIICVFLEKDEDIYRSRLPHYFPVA
UniProt Q8WWC4: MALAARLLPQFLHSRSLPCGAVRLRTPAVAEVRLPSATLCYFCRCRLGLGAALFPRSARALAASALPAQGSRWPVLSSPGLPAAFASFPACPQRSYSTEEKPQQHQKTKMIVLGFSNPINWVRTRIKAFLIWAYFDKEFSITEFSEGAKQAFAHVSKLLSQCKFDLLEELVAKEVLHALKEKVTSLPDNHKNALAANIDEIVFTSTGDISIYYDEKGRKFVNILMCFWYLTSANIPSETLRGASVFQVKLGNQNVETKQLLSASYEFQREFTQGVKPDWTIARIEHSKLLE
UniProt P07948: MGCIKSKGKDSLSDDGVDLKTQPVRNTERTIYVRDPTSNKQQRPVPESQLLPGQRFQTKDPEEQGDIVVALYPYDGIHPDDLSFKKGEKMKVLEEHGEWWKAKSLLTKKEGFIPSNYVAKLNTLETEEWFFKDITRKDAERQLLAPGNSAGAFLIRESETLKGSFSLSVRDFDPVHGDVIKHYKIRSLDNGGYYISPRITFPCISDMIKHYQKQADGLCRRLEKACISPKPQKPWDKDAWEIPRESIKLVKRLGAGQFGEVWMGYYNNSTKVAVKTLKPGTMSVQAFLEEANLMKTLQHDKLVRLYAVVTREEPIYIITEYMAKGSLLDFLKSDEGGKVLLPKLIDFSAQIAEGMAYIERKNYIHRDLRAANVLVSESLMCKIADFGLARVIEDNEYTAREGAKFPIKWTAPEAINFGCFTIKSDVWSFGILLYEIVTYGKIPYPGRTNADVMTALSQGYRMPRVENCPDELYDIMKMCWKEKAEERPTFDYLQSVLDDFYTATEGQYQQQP
UniProt P45985: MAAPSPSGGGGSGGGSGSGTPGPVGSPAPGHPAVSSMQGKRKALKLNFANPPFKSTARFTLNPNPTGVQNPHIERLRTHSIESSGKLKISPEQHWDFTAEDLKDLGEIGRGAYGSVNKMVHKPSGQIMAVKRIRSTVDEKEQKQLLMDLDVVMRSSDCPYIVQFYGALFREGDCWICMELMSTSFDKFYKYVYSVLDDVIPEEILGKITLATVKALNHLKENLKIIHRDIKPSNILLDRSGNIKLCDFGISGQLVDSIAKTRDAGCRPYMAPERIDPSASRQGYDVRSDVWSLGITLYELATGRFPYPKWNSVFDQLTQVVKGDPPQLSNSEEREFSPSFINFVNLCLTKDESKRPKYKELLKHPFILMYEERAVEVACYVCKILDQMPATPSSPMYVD
UniProt Q9NTJ4: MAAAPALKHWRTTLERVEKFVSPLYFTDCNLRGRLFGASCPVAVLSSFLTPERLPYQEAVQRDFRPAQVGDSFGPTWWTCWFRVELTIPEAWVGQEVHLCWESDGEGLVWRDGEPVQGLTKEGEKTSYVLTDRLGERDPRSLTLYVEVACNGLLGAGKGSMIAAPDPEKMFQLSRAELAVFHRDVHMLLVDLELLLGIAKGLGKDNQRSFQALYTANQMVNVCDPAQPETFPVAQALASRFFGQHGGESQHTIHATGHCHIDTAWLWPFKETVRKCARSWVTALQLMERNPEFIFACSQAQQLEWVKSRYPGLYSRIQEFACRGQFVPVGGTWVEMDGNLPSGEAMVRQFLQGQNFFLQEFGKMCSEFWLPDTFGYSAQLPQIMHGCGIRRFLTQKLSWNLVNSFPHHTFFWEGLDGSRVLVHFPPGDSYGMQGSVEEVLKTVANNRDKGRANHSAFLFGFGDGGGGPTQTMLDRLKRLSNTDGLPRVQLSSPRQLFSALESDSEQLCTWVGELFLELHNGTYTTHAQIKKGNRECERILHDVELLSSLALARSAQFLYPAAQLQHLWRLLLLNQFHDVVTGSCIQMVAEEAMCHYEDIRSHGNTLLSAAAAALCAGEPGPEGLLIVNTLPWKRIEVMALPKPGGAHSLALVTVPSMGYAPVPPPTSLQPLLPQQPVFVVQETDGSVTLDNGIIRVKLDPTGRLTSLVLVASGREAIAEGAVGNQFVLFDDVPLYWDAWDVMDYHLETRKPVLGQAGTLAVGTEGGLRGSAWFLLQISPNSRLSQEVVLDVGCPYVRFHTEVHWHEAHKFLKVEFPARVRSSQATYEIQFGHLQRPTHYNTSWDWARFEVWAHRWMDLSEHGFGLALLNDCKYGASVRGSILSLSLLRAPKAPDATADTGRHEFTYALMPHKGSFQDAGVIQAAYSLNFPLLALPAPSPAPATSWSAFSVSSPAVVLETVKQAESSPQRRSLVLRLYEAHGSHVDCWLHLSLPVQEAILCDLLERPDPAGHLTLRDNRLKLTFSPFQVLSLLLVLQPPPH
UniProt P45983: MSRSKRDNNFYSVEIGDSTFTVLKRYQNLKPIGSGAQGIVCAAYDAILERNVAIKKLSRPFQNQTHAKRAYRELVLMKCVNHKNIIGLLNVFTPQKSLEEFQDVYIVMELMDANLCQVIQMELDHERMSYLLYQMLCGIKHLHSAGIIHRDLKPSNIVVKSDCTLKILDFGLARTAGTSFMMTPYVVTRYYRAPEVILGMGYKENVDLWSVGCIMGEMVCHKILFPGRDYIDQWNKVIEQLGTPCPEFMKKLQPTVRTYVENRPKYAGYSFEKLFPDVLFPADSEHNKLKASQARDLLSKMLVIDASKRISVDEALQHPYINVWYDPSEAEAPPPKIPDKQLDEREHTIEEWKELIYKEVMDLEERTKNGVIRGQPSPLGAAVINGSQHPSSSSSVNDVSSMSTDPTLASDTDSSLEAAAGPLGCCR
UniProt Q16706: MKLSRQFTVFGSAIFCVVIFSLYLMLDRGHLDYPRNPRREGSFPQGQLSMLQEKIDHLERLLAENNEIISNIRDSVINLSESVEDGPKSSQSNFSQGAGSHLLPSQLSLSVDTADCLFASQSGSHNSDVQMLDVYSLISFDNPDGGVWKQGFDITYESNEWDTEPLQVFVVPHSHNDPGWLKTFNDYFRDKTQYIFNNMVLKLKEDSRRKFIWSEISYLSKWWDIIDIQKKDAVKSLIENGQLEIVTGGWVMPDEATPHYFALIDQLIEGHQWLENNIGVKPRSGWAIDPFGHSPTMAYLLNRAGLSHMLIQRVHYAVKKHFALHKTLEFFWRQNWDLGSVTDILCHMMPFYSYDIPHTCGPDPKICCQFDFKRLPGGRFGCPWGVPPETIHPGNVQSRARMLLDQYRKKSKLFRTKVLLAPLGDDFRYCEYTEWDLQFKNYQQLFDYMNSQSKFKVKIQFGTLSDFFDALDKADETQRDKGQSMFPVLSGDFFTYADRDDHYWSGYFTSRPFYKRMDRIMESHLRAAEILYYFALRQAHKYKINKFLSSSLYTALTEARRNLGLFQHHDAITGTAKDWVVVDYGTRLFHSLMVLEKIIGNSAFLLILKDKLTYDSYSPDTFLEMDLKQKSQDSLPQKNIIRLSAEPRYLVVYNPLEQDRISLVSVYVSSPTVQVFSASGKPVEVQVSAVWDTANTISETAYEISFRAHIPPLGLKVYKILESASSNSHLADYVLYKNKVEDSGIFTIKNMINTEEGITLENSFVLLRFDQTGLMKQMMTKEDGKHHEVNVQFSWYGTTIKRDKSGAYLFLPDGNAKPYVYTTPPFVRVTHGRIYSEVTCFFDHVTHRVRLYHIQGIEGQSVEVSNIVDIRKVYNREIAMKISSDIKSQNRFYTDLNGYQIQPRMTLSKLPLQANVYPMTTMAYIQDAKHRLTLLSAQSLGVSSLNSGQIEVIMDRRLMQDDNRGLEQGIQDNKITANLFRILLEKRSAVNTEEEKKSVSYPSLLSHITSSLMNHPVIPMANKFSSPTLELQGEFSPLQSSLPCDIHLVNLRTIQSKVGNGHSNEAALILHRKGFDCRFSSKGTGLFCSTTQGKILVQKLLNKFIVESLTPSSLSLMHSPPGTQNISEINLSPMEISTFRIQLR
UniProt P27816: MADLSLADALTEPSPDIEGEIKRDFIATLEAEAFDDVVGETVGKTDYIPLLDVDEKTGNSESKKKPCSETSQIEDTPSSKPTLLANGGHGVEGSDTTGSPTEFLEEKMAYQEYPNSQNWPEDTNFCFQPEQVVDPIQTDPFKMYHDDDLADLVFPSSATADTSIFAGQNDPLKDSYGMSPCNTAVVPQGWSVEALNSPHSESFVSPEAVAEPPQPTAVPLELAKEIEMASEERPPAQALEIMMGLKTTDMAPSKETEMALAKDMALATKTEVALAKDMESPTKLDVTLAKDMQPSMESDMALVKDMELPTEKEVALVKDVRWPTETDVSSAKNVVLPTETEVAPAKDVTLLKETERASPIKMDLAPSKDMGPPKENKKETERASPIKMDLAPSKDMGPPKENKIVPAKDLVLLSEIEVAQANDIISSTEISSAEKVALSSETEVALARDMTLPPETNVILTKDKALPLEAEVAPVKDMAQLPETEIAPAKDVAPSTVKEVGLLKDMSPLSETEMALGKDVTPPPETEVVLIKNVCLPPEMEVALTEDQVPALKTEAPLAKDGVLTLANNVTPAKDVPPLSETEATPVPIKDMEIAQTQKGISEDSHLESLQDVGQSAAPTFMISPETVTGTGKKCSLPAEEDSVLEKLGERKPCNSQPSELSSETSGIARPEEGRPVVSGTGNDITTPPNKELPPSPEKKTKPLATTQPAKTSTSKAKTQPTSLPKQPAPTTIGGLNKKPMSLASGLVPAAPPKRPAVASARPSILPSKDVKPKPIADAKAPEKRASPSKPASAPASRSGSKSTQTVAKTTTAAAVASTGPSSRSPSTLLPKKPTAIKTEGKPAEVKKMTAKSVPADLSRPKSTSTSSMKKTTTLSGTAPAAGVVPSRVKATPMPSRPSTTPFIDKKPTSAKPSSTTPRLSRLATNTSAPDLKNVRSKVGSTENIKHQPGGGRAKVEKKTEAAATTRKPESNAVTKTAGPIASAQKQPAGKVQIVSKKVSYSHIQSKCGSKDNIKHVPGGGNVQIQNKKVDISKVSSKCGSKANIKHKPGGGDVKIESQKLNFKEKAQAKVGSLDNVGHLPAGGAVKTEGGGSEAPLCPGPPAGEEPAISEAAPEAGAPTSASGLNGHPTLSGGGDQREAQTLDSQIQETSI
UniProt Q9UI95, whole entry, looked up: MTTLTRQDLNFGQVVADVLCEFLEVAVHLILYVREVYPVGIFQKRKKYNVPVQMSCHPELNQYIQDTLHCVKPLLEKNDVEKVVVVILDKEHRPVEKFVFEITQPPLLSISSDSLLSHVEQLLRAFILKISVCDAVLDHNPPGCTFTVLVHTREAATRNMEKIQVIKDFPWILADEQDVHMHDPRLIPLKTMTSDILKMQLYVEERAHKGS
UniProt Q9H063: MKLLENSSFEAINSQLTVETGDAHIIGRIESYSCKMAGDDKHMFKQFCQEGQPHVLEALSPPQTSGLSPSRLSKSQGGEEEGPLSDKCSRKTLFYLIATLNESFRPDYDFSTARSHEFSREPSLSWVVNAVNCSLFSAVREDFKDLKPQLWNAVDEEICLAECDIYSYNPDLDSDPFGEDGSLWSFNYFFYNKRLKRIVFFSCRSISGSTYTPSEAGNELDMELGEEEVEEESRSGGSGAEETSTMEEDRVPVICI
UniProt P28482, whole entry, looked up: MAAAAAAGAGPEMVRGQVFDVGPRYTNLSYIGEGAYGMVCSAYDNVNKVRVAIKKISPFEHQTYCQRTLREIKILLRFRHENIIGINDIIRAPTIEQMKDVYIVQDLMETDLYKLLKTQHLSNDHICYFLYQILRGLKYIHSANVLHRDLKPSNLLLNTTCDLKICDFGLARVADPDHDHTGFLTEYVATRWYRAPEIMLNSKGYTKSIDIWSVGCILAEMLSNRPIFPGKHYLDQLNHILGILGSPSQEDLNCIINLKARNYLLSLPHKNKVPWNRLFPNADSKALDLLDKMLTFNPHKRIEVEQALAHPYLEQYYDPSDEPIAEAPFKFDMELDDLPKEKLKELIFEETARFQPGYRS

The targets below were run with C#Cc1cccc(Nc2ncnc3cc(OCCOC)c(OCCOC)cc23)c1 [erlotinib] (assay: log2 fold change, soluble protein after heating vs DMSO (PISA); higher = thermal stabilisation; K562 lysate, 10 uM; active = over 0.2 and 3.5 SD of the protein, either way, in both replicates (recomputed)).
Outline: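 The values are log-two fold changes in thermal stability compared with solvent controls and come from duplicates. They were obtained by TMTpro 16plex LC-MS/MS, with channel sums equalised, on the supernatant after 21,000xg for 90 min. That supernatant came from crude K562 extract at 1 mg/mL protein treated with 10 μM compound for 30 min, heated for 3 min across 48°C-58°C, pooled and brought to 0.5% NP-40 at 4°C.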

log2 fold change, inactive:
MAP1S (UniProt Q66K74) 0.027
MACROD1 (UniProt Q9BQ69) 0.025
MAPK14 (UniProt Q16539) 0.044
MAIP1 (UniProt Q8WWC4) 0.02
MAP3K20 isoform 2 (UniProt Q9NYL2) -0.032
LYAR (UniProt Q9NX58) -0.007
MARS (UniProt P56192) 0.041
MAP7D1 (UniProt Q3KQU3) 0.004
MAP2K2 (UniProt P36507) 0.049
LTN1 isoform 3 (UniProt O94822) 0.028
MAT2A (UniProt P31153) -0.019
LYSMD1 (UniProt Q96S90) -0.015
MAPRE2 (UniProt Q15555) -0.074
MAP3K7 (UniProt O43318) 0.004
LYN (UniProt P07948) 0.054
MAP11 (UniProt Q8WVR3) 0.013
MAP2K4 isoform 2 (UniProt P45985) 0.035
MAN2C1 isoform 4 (UniProt Q9NTJ4) 0.014
MAN2A2 (UniProt P49641) 0.008
LZTFL1 (UniProt Q9NQ48) -0.035
MAPK8 isoform 3 (UniProt P45983) 0.026
MACF1 isoform 3 (UniProt Q9UPN3) -0.009
MAN2A1 (UniProt Q16706) -0.012
MAN2B1 (UniProt O00754) 0.009
MAP2K1 (UniProt Q02750) 0.016
MAP4 isoform 5 (UniProt P27816) -0.086
MAD2L2 (UniProt Q9UI95) 0.173
MAP3K20 (UniProt Q9NYL2) -0.007
MARCKS (UniProt P29966) -0.082
MAP4 (UniProt E7EVA0) 0.056
MAF1 (UniProt Q9H063) 0.04
MAPK1 (UniProt P28482) -0.021

Taken from the entries so far (7 entries):
log2 fold change, inactive:
MAP3K7 (UniProt O43318) 0.004
LYN (UniProt P07948) 0.054
MAP11 (UniProt Q8WVR3) 0.013
MAP2K4 isoform 2 (UniProt P45985) 0.035
MAN2C1 isoform 4 (UniProt Q9NTJ4) 0.014
MAN2A2 (UniProt P49641) 0.008
LZTFL1 (UniProt Q9NQ48) -0.035
